Source: patent US12404308
Results are given in words; binding and its absence hold for the method and conditions named. Some results given as binding are weak or reduced against the parent protein; the word gives no strength.

Legend:
[1] = target: Cry3Aa (Bacillus thuringiensis) (UniProt P0A379); experiment: co-expression in Bt; lipase activity of purified crystals; release by NaCl
[2] = target: Cry3Aa (Bacillus thuringiensis) (UniProt P0A379); experiment: lipase activity of crystals and of the supernatant after incubation with NaCl
[3] = target: Cry3Aa (Bacillus thuringiensis) (UniProt P0A379); experiment: co-expression in Bt; SDS-PAGE of purified crystals
[4] = target: negatively-charged Cry3Aa mutant (negCry3Aa) (Bacillus thuringiensis) (UniProt P0A379); experiment: co-expression in Bt; SDS-PAGE of purified crystals

Measured: binding

lipase A from Bacillus subtilis fused to a poly-arginine tail with 9 consecutive arginine residues (lipAR9) (from UniProt P37957 32-212) (enzyme)
binds: all assays above
